In PubChem BioAssay AID328 (DTP/NCI, 2004):
The list does not hold the whole screen: it gathers tests that were run many times, whatever their T/C, doses with no T/C, and many T/C values between a quarter and a half above the control. Other doses and runs of a compound stand elsewhere. T/C: endpoint of the treated group in % of that of the vehicle group. Some entries give survivors of the animals treated and no T/C: the source holds a T/C of zero for them, seemingly a mark for toxic or unscored doses. Some survivor counts are full or nearly so, which does not show that the dose was tolerated: the source hardly ever lists a survival T/C far under the control, and the zero likely stands for such cases as well. Survivors were counted at the toxicity check, usually on the fifth day, unless a day is given; later deaths do not show. Schedule codes are those of the source, read here as Q, the interval in days (D) or hours (H), X, the number of doses. Where survival is the endpoint, the PubChem record calls one and a half times the control and up active, and a quarter to a half above the control has no call in these data; cut-offs in other NCI protocols can differ. Some T/C values carry the count of animals alive at the toxicity check (mostly the fifth day); where none is given, no animal had died by that day. Some entries hold several experiments; their values stand side by side, smallest first.

Tested on: BDF1 mice, P388 leukemia ip, median survival T/C
Assay: NCI In Vivo Anticancer Drug Screen. Data for tumor model P388 Leukemia (intraperitoneal) in B6D2F1 (BDF1) mice
Details: T/C endpoint: median survival time, higher T/C = longer survival
How it was run: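 T/C = treated-group survival ÷ vehicle-control survival; tumour transplanted into mice before dosing.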

[1] = dose: 75.0 mg/kg/injection, schedule: Q01DX009 (ip), vehicle: saline with Tween-80
[2] = dose: 100.0 mg/kg/injection, schedule: Q01DX009 (ip), vehicle: saline with Tween-80
[3] = dose: 200.0 mg/kg/injection, schedule: Q01DX009 (ip), vehicle: saline
[4] = dose: 400.0 mg/kg/injection, schedule: Q01DX009 (ip), vehicle: saline
[5] = dose: 200.0 mg/kg/injection, schedule: Q04DX003 (ip), vehicle: saline with Tween-80
[6] = dose: 100.0 mg/kg/injection, schedule: Q01DX009 (ip), vehicle: Klucel (hydroxypropylcellulose) (HPC)
[7] = dose: 100.0 mg/kg/injection, schedule: Q01DX009 (ip), vehicle: saline
[8] = dose: 400.0 mg/kg/injection, schedule: Q01DX009 (ip), vehicle: Klucel (hydroxypropylcellulose) (HPC)
[9] = dose: 200.0 mg/kg/injection, schedule: Q01DX009 (ip), vehicle: saline with Tween-80
[10] = dose: 400.0 mg/kg/injection, schedule: Q04DX003 (ip), vehicle: saline with Tween-80

CCCCN(C)N=Nc1c(C(N)=O)n[nH]c1C
T/C (dose: 33.0 mg/kg/injection, schedule: Q01DX009 (ip), vehicle: saline with Tween-80): 136 % of control [5 of 6 alive]
T/C (dose: 50.0 mg/kg/injection, schedule: Q01DX009 (ip), vehicle: saline with Tween-80): 140 % of control
survivor count [1]: 5 of 6
survivor count [2]: 5 of 6
survivor count (dose: 300.0 mg/kg/injection, schedule: Q04DX003 (ip), vehicle: Klucel (hydroxypropylcellulose) (HPC)): 2 of 6

CC(=O)OCc1ccc(-n2c(C(F)(F)F)nc3nc(Cl)c(Cl)nc32)o1
survivor count [3]: 5 of 6
survivor count [4]: 4 of 6

c1ccc(C2OC3(CCCCC3)C[N+]23CCCC3)cc1 (stereo unspecified)
survivor count [2]: 2 of 6
survivor count [5]: 1 of 6

O=C(Nc1ccc(C2=NCCN2)cc1)c1ccc(C(=O)Nc2ccc(C3=NCCN3)cc2)c([N+](=O)[O-])c1
survivor count (dose: 18.0 mg/kg/injection, schedule: Q01DX010 (ip), vehicle: saline): 5 of 6

CCCCCCCCCCCCCCCC[N+]1(C)CCN(SN2CC[N+](C)(CCCCCCCCCCCCCCCC)CC2)CC1
survivor count [3]: 4 of 6
survivor count (dose: 400.0 mg/kg/injection, schedule: Q04DX003 (ip), vehicle: saline): 2 of 6

O=C(CCl)Nc1cc(Cl)ccc1N1CCCC1
survivor count (dose: 75.0 mg/kg/injection, schedule: Q04DX003 (ip), vehicle: Klucel (hydroxypropylcellulose) (HPC)): 6 of 6
survivor count [6]: 0 of 6
survivor count (dose: 115.0 mg/kg/injection, schedule: Q04DX003 (ip), vehicle: Klucel (hydroxypropylcellulose) (HPC)): 3 of 6

O=C(NC1CCCC2C(NC(=O)c3ccccc3)CCCC12)c1ccccc1 (stereo unspecified)
survivor count (dose: 66.0 mg/kg/injection, schedule: Q01DX009 (ip), vehicle: saline): 6 of 6
T/C [7]: 130 % of control

ClC1OC(Cl)C(Cl)OC1Cl (stereo unspecified)
survivor count (dose: 25.0 mg/kg/injection, schedule: Q01DX009 (ip), vehicle: Klucel (hydroxypropylcellulose) (HPC)): 6 of 6

CC(=O)O[C@]1(C(C)=O)CC[C@H]2[C@@H]3C[C@H](C)C4=CC(=O)CC[C@]4(C)[C@H]3CC[C@@]21C
survivor count [6]: 6 of 6
survivor count [8]: 8 of 10
survivor count (dose: 800.0 mg/kg/injection, schedule: Q01DX009 (ip), vehicle: Klucel (hydroxypropylcellulose) (HPC)): 9 of 10

CC(C)=NNC(=O)C1CCN1C(c1ccccc1)c1ccccc1 (stereo unspecified)
survivor count (dose: 200.0 mg/kg/injection, schedule: Q01DX001 (ip), vehicle: saline with Tween-80): 0 of 6

CCSc1ccc2c(c1)N(CCCN1CCN(C)CC1)c1ccccc1S2
T/C (dose: 50.0 mg/kg/injection, schedule: Q04DX003 (ip), vehicle: saline): 135 % of control
T/C (dose: 60.0 mg/kg/injection, schedule: Q04DX003 (ip), vehicle: saline): 130 % of control
survivor count [2]: 0 of 8
survivor count [7]: 1 of 6
survivor count [9]: 0 of 8
survivor count [3]: 0 of 6

Cc1cc2nc(N)sc2cc1C
T/C (dose: 50.0 mg/kg/injection, schedule: Q01DX009 (ip), vehicle: other): 130 % of control

COc1ccc2c(c1OC)CN(C)CCc1cc3c(cc1C(=O)C2)OCO3
survivor count [1]: 5 of 6
survivor count (dose: 150.0 mg/kg/injection, schedule: Q01DX009 (ip), vehicle: saline with Tween-80): 3 of 6

CC(C)(CC(=O)O)CC(=O)OCC(=O)[C@@]1(O)CC[C@H]2[C@@H]3CCC4=CC(=O)C=C[C@]4(C)[C@H]3[C@@H](O)C[C@@]21C
T/C (dose: 100.0 mg/kg/injection, schedule: Q01DX009 (sc), vehicle: steroid suspending solution): 133 % of control
T/C (dose: 400.0 mg/kg/injection, schedule: Q01DX009 (sc), vehicle: steroid suspending solution): 133 % of control

CC1=C2C(=O)c3ccccc3C2=C(C)S(=O)(=O)O1
survivor count (dose: 100.0 mg/kg/injection, schedule: Q04DX003 (ip), vehicle: saline with Tween-80): 0 of 6
survivor count (dose: 200.0 mg/kg/injection, schedule: Q01DX009 (ip), vehicle: carboxymethylcellulose (CMC)): 3 of 6
T/C [5]: 133 % of control
survivor count [5]: 0 of 6
T/C [10]: 127 % of control
survivor count [10]: 0 of 6
survivor count (dose: 600.0 mg/kg/injection, schedule: Q04DX003 (ip), vehicle: saline with Tween-80): 0 of 6

O=C(Cl)C1CCCCC1
survivor count [9]: 5 of 6

C[C@H](CCC[C@H](C)OS(=O)(=O)c1ccccc1)OS(=O)(=O)c1ccccc1
T/C [2]: 148 % of control

O=c1c(O)c(-c2ccc(O)c(O)c2)oc2cc(O)cc(O)c12
T/C (dose: 60.0 mg/kg/injection, schedule: Q01DX009 (ip), vehicle: saline): 127 % of control
T/C [3]: 132 and 132 % of control [5 of 6 alive]
survivor count (dose: 300.0 mg/kg/injection, schedule: Q01DX009 (ip), vehicle: saline): 1 of 6
survivor count [4]: 6 of 6
survivor count (dose: 800.0 mg/kg/injection, schedule: Q01DX009 (ip), vehicle: saline): 0 of 6
survivor count (dose: 1600.0 mg/kg/injection, schedule: Q01DX009 (ip), vehicle: saline): 0 of 6

CCCCN(CCCC)CCNc1ccc(Cl)c2oc3cc(C)ccc3c(=O)c12
survivor count [10]: 5 of 6

CC(C)OC(CCC#N)c1ccccc1 (stereo unspecified)
survivor count [8]: 5 of 6

CN(C)c1ccc(C=O)c(Br)c1
survivor count [6]: 5 of 6
survivor count (dose: 200.0 mg/kg/injection, schedule: Q01DX009 (ip), vehicle: Klucel (hydroxypropylcellulose) (HPC)): 1 of 6
survivor count (dose: 200.0 mg/kg/injection, schedule: Q04DX003 (ip), vehicle: Klucel (hydroxypropylcellulose) (HPC)): 1 of 6
survivor count [8]: 0 of 6

COc1ccc(C2C(C(=O)OCc3ccccc3)=C(C)NC(C)=C2C(=O)OCc2ccccc2)cc1
survivor count (dose: 25.0 mg/kg/injection, schedule: Q01DX009 (ip), vehicle: distilled water + Tween-80): 6 of 6
survivor count (dose: 50.0 mg/kg/injection, schedule: Q01DX009 (ip), vehicle: distilled water + Tween-80): 6 of 6
survivor count (dose: 100.0 mg/kg/injection, schedule: Q01DX009 (ip), vehicle: distilled water + Tween-80): 6 of 6
survivor count (dose: 200.0 mg/kg/injection, schedule: Q01DX009 (ip), vehicle: distilled water + Tween-80): 6 of 6
survivor count (dose: 400.0 mg/kg/injection, schedule: Q01DX009 (ip), vehicle: distilled water + Tween-80): 6 of 6

CCCCCCC1CCC(N)CC1 (stereo unspecified)
survivor count (dose: 50.0 mg/kg/injection, schedule: Q01DX009 (ip), vehicle: Klucel (hydroxypropylcellulose) (HPC)): 6 of 6

SC1CC[N-]CC1.SC1CC[N-]CC1.[Cl][Pt+2][Cl]
survivor count (dose: 200.0 mg/kg/injection, schedule: Q01DX009 (ip), vehicle: water): 1 of 6
survivor count (dose: 400.0 mg/kg/injection, schedule: Q01DX009 (ip), vehicle: water): 0 of 6

CNC(=S)N(N)c1ccccc1
survivor count (dose: 300.0 mg/kg/injection, schedule: Q01DX009 (ip), vehicle: Klucel (hydroxypropylcellulose) (HPC)): 4 of 6
survivor count (dose: 400.0 mg/kg/injection, schedule: Q04DX003 (ip), vehicle: Klucel (hydroxypropylcellulose) (HPC)): 4 of 6

CCCCOC1CC2c3ccccc3C1c1cccc[n+]12 (stereo unspecified)
survivor count (dose: 35.0 mg/kg/injection, schedule: Q01DX009 (ip), vehicle: saline): 5 of 6
survivor count (dose: 55.0 mg/kg/injection, schedule: Q01DX009 (ip), vehicle: saline): 0 of 6
survivor count (dose: 75.0 mg/kg/injection, schedule: Q04DX003 (ip), vehicle: saline): 2 of 6
survivor count (dose: 80.0 mg/kg/injection, schedule: Q01DX009 (ip), vehicle: saline): 0 of 6

C=CCNC(=O)C(Br)(CC)CC
survivor count [7]: 6 of 6
survivor count [3]: 6 of 6

C=C1C(=O)OC2CC(C)C3CC(=O)C(C)=C3C(O)C12 (stereo unspecified)
survivor count [6]: 2 of 6
